Drawing on US20220073611A1, this text covers binding for two molecules.

This test deals with GluN1a with the amino terminal residues 26-382 deleted. Put plainly: immunofluorescence on HEK293T cells expressing the mutant.

No constants are given. Whether binding was seen depends on the method and setting.

B1: mAb 2G6 (antibody, V domains shown)
VH: QVQLQESGGGVVQPGRSLRLSCAASGFSFNAFAMHWVRQAPGKGLEWVARISHYGSDDYYADSVKGRFTISRDNSQNTLFLQMNSLKAEDTGVYYCWRGFTLVRGVISRNPINRFSGMDVWGQGTTVTVS
VL: SYELMQPPSVSVSPGQTARITCSGDALPKKYAYWYQQKSGQAPILVIYEDNKRPSGIPERFSGSSSGTMATLTISGAQVEDEADYFCYSTDSSGNHGVFGGGTKLTVL
Take B1: the binding entry was “no binding (tested: 5 µg/mL)”.

B2: mAb 5F5 (antibody, V domains shown)
VH: QVQLVESGGGVVRPGGSLRLSCAASGFTFSTYSLHWVRQAPGKGLEWVGVILYDGSKKYYADSVRGRFTISRDNSKSTLNLDMSSLRPDDTAVYYCARDPIAVAPRPSGMVPQGFDYWGQGTLVTVSS
VL: QSVVTQPPSASGTPGQRVTISCSGSSSNIGRNFVFWYRQLPGTAPKVLIYKNIQRPSGVPDRISGSRSGSSASLAISGLRSEDEADYYCASWDDSLSGVVFGGGTKLTVL
Consider B2, for which the binding result was “no binding (tested: 5 µg/mL)”.
